Assay [1] deals with LCK (UniProt P06239). Nature of the assay: method not described; rank order of LCK affinity among CD8 Products 1-4.
The target in assay [2] is LCK (UniProt P06239). Nature of the assay: method not described; rank order of LCK affinity among CD8 Products 1-4 (second highest).
Assay [3] has as its target LCK (UniProt P06239). Nature of the assay: method not described; rank order of LCK affinity among CD8 Products 1-4 (second lowest).

Sequences of proteins named here, by UniProt entry; tags and fusion partners are left off. A change or cut given only in a name is not applied to a line headed by its entry. Residues count along the entry.
UniProt P06239, residues 2-509: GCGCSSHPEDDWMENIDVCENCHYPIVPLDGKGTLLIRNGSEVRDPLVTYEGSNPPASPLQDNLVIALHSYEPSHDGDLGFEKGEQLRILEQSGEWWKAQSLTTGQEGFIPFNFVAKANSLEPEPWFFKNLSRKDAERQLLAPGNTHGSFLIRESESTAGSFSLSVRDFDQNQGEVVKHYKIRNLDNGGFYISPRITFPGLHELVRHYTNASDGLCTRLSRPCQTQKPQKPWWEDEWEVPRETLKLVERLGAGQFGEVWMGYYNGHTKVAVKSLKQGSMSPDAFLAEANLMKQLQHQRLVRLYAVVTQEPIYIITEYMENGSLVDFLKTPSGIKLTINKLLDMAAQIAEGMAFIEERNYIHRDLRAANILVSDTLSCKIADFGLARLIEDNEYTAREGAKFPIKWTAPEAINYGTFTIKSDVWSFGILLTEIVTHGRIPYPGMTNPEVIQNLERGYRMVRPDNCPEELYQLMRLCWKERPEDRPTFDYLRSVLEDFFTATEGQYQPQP
UniProt P01732: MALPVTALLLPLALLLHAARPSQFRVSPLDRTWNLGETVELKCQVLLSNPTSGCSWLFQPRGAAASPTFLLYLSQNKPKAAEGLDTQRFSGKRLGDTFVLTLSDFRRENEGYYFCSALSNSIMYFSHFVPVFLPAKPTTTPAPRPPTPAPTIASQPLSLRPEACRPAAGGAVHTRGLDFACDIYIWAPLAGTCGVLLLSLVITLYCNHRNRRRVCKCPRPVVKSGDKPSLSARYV

These are yes or no findings as the source states them, for the method shown. Some entries that bind do so weakly or less than the wild type.

For the substance “CD8α homodimer (exogenous CD8 of CD8 Construct 1 / CD8 Product 1) (from UniProt P01732 22-235) (receptor)”, the binding result with LCK [1] is recorded as “binds”.

Turning to “CD8α with CD8β intracellular domain (exogenous CD8 of CD8 Construct 3 / CD8 Product 3) (from UniProt P01732 22-203) (receptor)”, the binding result with LCK [2] was “binds”.

Regarding “CD8α-P2A-CD8β (exogenous CD8α and CD8β of CD8 Construct 2 / CD8 Product 2) (from UniProt P01732 22-235; P10966 22-210) (receptor)”, the binding entry with LCK [3] is reported as “binds”.

(Values after US20210085721A1.)
